Experimental data reported in paper PMC11391272.
No constants are given. Whether binding was seen depends on the method and setting. In cells and extracts the contact can be indirect. Some entries that bind do so weakly or less than the wild type.

Columns and labels:
[1] = molecular target: T1, YTH N6-methyladenosine RNA binding protein 2 (YTHDF2), endogenous (human (endogenous in the paper's human cell lines; line not stated for the co-IP)) (UniProt Q9Y5A9); assay: co-IP; endogenous proteins; POP1 precipitated with anti-POP1 antibody and protein G magnetic beads, or YTHDF2 precipitated; lysis buffer 150 mM NaCl, 10 mM HEPES, 1% NP-40, pH 7.4; 4 °C overnight; Western blot; POP1-YTHDF2 also tested after RIDA knock-down or STM2457 treatment (binding significantly reduced)
T1 sequence: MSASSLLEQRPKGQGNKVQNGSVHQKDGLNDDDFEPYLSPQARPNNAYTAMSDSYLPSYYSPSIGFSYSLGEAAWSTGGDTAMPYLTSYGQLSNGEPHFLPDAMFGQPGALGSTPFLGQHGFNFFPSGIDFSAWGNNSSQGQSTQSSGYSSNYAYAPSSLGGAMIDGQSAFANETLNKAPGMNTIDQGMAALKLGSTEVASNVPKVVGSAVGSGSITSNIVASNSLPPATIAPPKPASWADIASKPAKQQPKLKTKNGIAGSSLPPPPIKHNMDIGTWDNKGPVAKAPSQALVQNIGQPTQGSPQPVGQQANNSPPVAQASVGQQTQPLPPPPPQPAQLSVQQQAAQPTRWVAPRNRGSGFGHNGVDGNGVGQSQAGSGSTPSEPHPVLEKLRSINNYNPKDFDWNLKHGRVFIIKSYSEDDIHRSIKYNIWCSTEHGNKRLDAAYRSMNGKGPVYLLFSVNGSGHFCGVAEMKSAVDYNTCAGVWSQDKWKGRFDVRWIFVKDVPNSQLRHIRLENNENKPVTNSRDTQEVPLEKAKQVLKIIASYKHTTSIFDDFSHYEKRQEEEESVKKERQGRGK

[2] = molecular target: T2, labeled POP1 (exogenous, transfected) (UniProt Q99575); assay: co-IP; exogenous: labeled POP1, YTHDF2 and RIDA transfected; the labels detected after enrichment; anti-Flag magnetic beads named in the methods; lysis buffer 150 mM NaCl, 10 mM HEPES, 1% NP-40, pH 7.4; Western blot
T2 sequence: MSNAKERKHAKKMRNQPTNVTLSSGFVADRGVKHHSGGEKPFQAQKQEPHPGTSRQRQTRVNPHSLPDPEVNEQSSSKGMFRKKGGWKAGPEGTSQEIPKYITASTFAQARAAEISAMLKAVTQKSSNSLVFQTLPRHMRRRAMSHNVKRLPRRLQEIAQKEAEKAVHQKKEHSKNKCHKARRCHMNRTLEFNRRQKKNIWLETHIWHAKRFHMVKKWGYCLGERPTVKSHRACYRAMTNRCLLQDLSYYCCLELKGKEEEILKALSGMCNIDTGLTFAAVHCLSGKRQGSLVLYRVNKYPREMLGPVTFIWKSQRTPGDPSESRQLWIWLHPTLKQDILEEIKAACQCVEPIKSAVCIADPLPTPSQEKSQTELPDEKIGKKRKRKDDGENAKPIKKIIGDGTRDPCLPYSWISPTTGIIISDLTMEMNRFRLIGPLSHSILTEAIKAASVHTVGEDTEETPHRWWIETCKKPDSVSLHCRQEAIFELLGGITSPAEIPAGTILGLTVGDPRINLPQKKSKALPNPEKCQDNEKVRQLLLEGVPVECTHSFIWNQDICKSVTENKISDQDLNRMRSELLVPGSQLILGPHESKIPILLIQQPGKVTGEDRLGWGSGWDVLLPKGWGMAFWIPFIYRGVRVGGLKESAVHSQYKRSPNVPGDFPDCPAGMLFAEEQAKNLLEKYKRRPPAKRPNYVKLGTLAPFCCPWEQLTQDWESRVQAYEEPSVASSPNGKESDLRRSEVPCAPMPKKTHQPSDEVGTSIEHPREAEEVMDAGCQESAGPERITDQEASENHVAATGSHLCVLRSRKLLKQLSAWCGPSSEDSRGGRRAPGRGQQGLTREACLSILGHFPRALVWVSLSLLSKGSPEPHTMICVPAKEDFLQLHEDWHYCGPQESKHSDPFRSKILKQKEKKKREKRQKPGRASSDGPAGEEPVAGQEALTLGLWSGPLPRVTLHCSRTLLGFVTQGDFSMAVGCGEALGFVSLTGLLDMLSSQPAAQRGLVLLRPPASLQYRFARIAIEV

B1: Processing of precursors 1 (POP1), endogenous (protein, UniProt Q99575 1-1024)
chain: MSNAKERKHAKKMRNQPTNVTLSSGFVADRGVKHHSGGEKPFQAQKQEPHPGTSRQRQTRVNPHSLPDPEVNEQSSSKGMFRKKGGWKAGPEGTSQEIPKYITASTFAQARAAEISAMLKAVTQKSSNSLVFQTLPRHMRRRAMSHNVKRLPRRLQEIAQKEAEKAVHQKKEHSKNKCHKARRCHMNRTLEFNRRQKKNIWLETHIWHAKRFHMVKKWGYCLGERPTVKSHRACYRAMTNRCLLQDLSYYCCLELKGKEEEILKALSGMCNIDTGLTFAAVHCLSGKRQGSLVLYRVNKYPREMLGPVTFIWKSQRTPGDPSESRQLWIWLHPTLKQDILEEIKAACQCVEPIKSAVCIADPLPTPSQEKSQTELPDEKIGKKRKRKDDGENAKPIKKIIGDGTRDPCLPYSWISPTTGIIISDLTMEMNRFRLIGPLSHSILTEAIKAASVHTVGEDTEETPHRWWIETCKKPDSVSLHCRQEAIFELLGGITSPAEIPAGTILGLTVGDPRINLPQKKSKALPNPEKCQDNEKVRQLLLEGVPVECTHSFIWNQDICKSVTENKISDQDLNRMRSELLVPGSQLILGPHESKIPILLIQQPGKVTGEDRLGWGSGWDVLLPKGWGMAFWIPFIYRGVRVGGLKESAVHSQYKRSPNVPGDFPDCPAGMLFAEEQAKNLLEKYKRRPPAKRPNYVKLGTLAPFCCPWEQLTQDWESRVQAYEEPSVASSPNGKESDLRRSEVPCAPMPKKTHQPSDEVGTSIEHPREAEEVMDAGCQESAGPERITDQEASENHVAATGSHLCVLRSRKLLKQLSAWCGPSSEDSRGGRRAPGRGQQGLTREACLSILGHFPRALVWVSLSLLSKGSPEPHTMICVPAKEDFLQLHEDWHYCGPQESKHSDPFRSKILKQKEKKKREKRQKPGRASSDGPAGEEPVAGQEALTLGLWSGPLPRVTLHCSRTLLGFVTQGDFSMAVGCGEALGFVSLTGLLDMLSSQPAAQRGLVLLRPPASLQYRFARIAIEV
B1 was tested, and the binding [1] was “binds”.

B2: RIDA, endogenous (protein, UniProt P52758 1-137)
chain: MSSLIRRVISTAKAPGAIGPYSQAVLVDRTIYISGQIGMDPSSGQLVSGGVAEEAKQALKNMGEILKAAGCDFTNVVKTTVLLADINDFNTVNEIYKQYFKSNFPARAAYQVAALPKGSRIEIEAVAIQGPLTTASL
With B2 the binding [1] was “binds”.

B3: labeled RIDA (exogenous, transfected) (protein, UniProt P52758 1-137)
chain: MSSLIRRVISTAKAPGAIGPYSQAVLVDRTIYISGQIGMDPSSGQLVSGGVAEEAKQALKNMGEILKAAGCDFTNVVKTTVLLADINDFNTVNEIYKQYFKSNFPARAAYQVAALPKGSRIEIEAVAIQGPLTTASL
B3 was tested, and the binding [2] was “binds”.
